Data from publication PMC11484822.

Chains of the proteins cited; added tags and fusions are not shown.
UniProt Q96SK2: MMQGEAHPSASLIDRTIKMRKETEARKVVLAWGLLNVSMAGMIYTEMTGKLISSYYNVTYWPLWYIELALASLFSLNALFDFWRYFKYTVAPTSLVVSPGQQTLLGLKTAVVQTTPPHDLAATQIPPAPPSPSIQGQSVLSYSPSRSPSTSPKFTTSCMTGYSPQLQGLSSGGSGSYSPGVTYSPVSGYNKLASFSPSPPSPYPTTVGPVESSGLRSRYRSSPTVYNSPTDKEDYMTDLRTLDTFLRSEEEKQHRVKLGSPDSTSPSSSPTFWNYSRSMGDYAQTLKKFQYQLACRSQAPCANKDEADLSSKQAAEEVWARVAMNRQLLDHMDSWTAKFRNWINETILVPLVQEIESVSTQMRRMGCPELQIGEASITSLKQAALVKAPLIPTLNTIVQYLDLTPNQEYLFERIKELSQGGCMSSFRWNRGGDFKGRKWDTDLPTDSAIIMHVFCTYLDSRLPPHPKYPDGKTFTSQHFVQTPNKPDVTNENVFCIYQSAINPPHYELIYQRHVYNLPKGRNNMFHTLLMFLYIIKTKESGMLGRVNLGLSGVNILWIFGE
UniProt Q14974: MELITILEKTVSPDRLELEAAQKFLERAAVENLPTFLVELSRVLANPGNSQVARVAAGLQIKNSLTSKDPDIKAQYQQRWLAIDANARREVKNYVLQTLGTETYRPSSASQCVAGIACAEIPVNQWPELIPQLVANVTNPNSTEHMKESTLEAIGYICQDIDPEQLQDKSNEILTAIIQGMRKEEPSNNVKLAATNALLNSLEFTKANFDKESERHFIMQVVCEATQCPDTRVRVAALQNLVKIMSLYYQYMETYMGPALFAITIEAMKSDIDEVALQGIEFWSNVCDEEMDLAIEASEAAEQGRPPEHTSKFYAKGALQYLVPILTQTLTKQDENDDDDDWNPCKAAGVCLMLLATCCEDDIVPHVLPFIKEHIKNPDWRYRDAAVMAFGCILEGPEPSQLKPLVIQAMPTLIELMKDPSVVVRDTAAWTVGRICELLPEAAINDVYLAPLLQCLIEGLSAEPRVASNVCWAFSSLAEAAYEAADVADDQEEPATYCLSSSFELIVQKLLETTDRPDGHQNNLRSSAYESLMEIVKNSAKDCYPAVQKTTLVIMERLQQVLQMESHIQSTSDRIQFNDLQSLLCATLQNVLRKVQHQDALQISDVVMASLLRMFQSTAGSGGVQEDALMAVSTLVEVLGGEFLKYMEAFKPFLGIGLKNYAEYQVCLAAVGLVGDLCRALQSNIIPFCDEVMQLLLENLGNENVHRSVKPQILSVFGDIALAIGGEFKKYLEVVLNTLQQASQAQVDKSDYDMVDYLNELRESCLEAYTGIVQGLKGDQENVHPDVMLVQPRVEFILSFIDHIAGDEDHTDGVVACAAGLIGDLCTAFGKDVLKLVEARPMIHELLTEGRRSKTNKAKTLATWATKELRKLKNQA

Target: Flag-TMEM209 (transmembrane protein 209) overexpressed in MHCC-97H cells (UniProt Q96SK2)
Assay: affinity purification with mass spectrometry; lysate of Flag-TMEM209 overexpressing MHCC-97H cells immunoprecipitated with Flag or IgG antibody; 10% SDS-PAGE, Coomassie staining, mass spectrometry

binding: binds
Substance: Karyopherin-β1 (KPNB1), endogenous in MHCC-97H and Huh7 cells (from UniProt Q14974 1-876)

These are yes or no findings as the source states them, for the method shown. In cells and extracts the contact can be indirect. A yes stands for co-enrichment or nearness to the bait. Other partners may have been found.
